Measurements taken from the supplement of paper PMC12872613.
Counter-ions that a name gives are not always drawn. This is one part of the list. Cut-off read from the data, not from the text of the source: active = 0.7 or more and inactive = the rest. Repeats are few or missing, and single values can be far off.

What follows are compounds tested on MiaPaCa-2 CLSA-25 (assay: cell death relative to DMSO vehicle (fraction); higher = more cytotoxic). Settings: 5 µM; treatment time 48 h; medium cystine 25 µM.
In the case of `CC(C)C1=CC2=CC[C@@H]3[C@](C)(CCC[C@@]3(C)C(=O)O)[C@H]2CC1` [Abietic Acid], the cell death is reported as inactive: 0.113. With `C[C@@H](c1ncncc1F)[C@](O)(Cn1cncn1)c1ccc(F)cc1F` [Voriconazole] the cell death was inactive: 0.0851. `Cc1cc(-c2ccccc2)nnc1NCCN1CCOCC1` [Minaprine dihydrochloride] was tested, and the cell death was inactive: 0.046. With `O=C(O)CCC(CP(=O)(O)O)C(=O)O` (centres undefined) the cell death was inactive: 0.358. In the case of `COc1ccc2[nH]c([S+]([O-])Cc3ncc(C)c(OC)c3C)nc2n1` (centres undefined) [Tenatoprazole], the cell death is reported as inactive: 0.164. In the case of `O=C(O)/C=C/c1ccc(Cn2ccnc2)cc1` [Ozagrel], the cell death is reported as inactive: 0.205. In the case of `N[C@H]1C(O)O[C@H](CO)[C@@H](O)[C@@H]1O` (some centres undefined) [Glucosamine hydrochloride], the cell death is reported as inactive: 0.0896. For `CCCCN1CCCC[C@H]1C(=O)Nc1c(C)cccc1C` [Levobupivacaine HCl], the cell death was inactive: 0.182. `OC[C@@H](O)[C@@H](O)[C@H](O)[C@@H](O)CO` [D-Sorbitol] was tested, and the cell death was inactive: 0.0155. In the case of `CC1=C(/C=C/C(C)=C/C=C/C(C)=C/C=C/C=C(C)/C=C/C=C(C)/C=C/C2=C(C)CCCC2(C)C)C(C)(C)CCC1` [Beta-Carotene], the cell death is reported as inactive: 0.0187. In the case of `O=C(NCc1ccc(S(=O)(=O)c2cc(F)cc(F)c2)cc1)c1ccc2nccn2c1`, the cell death is reported as inactive: 0.683. For `NCCCC(O)(P(=O)(O)O)P(=O)(O)O` [Alendronate sodium hydrate], the cell death was inactive: 0.119. For `CC(C)(S)C(N)C(=O)O` (racemic) [DL-Penicillamine], the cell death was inactive: 0.03. In the case of `COc1ccc(-c2nc(-c3cc(C(F)(F)F)cc(C(F)(F)F)c3)n(Cc3ccc(C(N)=O)cc3)c2-c2ccc(OC)cc2)cc1` [Apoptozole], the cell death is reported as inactive: 0.335. With `COc1cc(CCC(=O)O)ccc1O` [Hydroferulic acid] the cell death was inactive: 0.0195. With `CCCCCCCCCCCCCCCC(=O)OC[C@H](O)[C@H]1OC(=O)C(O)=C1O` [L-Ascorbyl 6-palmitate] the cell death was inactive: 0.196. In the case of `O=C(O)c1cc(-c2ccccc2)nc2ccccc12` [Cinchophen], the cell death is reported as inactive: -0.0242. With `CC(C)c1cc(C(C)C)c(CC(=O)NS(=O)(=O)Oc2c(C(C)C)cccc2C(C)C)c(C(C)C)c1` [Avasimibe] the cell death was active: 0.785. For `Cc1ccc(Oc2nc3cc(-c4ccc(-c5ccccc5)cc4)c(Cl)cc3[nH]2)cc1C(=O)O`, the cell death was inactive: 0.488. For `O=C(O)c1nn(Cc2ccc(Cl)cc2Cl)c2ccccc12` [Lonidamine], the cell death was inactive: -0.00803. In the case of `CCC(=O)Nc1cccc(Oc2nc(Nc3ccc(N4CCN(C)CC4)cc3OC)ncc2Cl)c1`, the cell death is reported as inactive: 0.183. In the case of `NC(CO)C(=O)NNCc1ccc(O)c(O)c1O` (centres undefined) [Benserazide hydrochloride], the cell death is reported as inactive: 0.00562. `CC(=O)OC/C=C(C)/C=C/C=C(C)/C=C/C1=C(C)CCCC1(C)C` [Retinyl acetate] was tested, and the cell death was inactive: 0.0773. For `Nc1cccc(S(=O)(=O)N2CCCN(S(=O)(=O)c3ccc4c(c3)OCCO4)CC2)c1`, the cell death was inactive: 0.128. `CC(C)(Sc1cc(C(C)(C)C)c(O)c(C(C)(C)C)c1)Sc1cc(C(C)(C)C)c(O)c(C(C)(C)C)c1` [Probucol] was tested, and the cell death was inactive: 0.229. `O=C(O)c1ccccn1` [2-Picolinic acid] was tested, and the cell death was inactive: 0.326. `NC(=O)c1cccc(-c2cccc(OC(=O)NC3CCCCC3)c2)c1` was tested, and the cell death was inactive: 0.0289. In the case of `CCCCCCOC(=O)NC(=N)c1ccc(NCc2nc3cc(C(=O)N(CCC(=O)OCC)c4ccccn4)ccc3n2C)cc1` [Dabigatran etexilate], the cell death is reported as inactive: 0.0455. `O=C(/C=C/c1ccccc1)NC(NC(=S)Nc1cccc2cccnc12)C(Cl)(Cl)Cl` (centres undefined) [Salubrinal] was tested, and the cell death was inactive: 0.027. With `Cc1[nH]c(=O)c(C#N)cc1-c1ccncc1` [Milrinone] the cell death was inactive: 0.531. In the case of `CC1(C)O[C@@H]2C[C@H]3[C@@H]4CCC5=CC(=O)C=C[C@]5(C)[C@@]4(F)[C@@H](O)C[C@]3(C)[C@]2(C(=O)CO)O1` [Triamcinolone acetonide], the cell death is reported as inactive: -0.00107. `C[N+](C)(C)CC(=O)O` [Betaine] was tested, and the cell death was inactive: 0.21. For `Cc1c(Cl)cccc1S(=O)(=O)Nc1nc(CC(=O)N2CCN(C)CC2)cs1`, the cell death was inactive: 0.2. With `Cn1c(=O)cc(N2CCC[C@@H](N)C2)n(Cc2cc(F)ccc2C#N)c1=O` [Trelagliptin succinate] the cell death was inactive: 0.0792. In the case of `Cc1cnc(C(=O)NCCc2ccc(S(=O)(=O)NC(=O)NC3CCCCC3)cc2)cn1` [Glipizide], the cell death is reported as inactive: 0.284. For `CC1(C)[C@@H](O[C@H]2O[C@H](C(=O)O)[C@@H](O)[C@H](O)[C@H]2O[C@@H]2O[C@H](C(=O)O)[C@@H](O)[C@H](O)[C@H]2O)CC[C@]2(C)[C@H]3C(=O)C=C4[C@@H]5C[C@@](C)(C(=O)O)CC[C@]5(C)CC[C@@]4(C)[C@]3(C)CC[C@@H]12` [Diammonium Glycyrrhizinate], the cell death was inactive: 0.0385. `CC(=O)[C@H]1CC[C@H]2[C@@H]3C[C@H](C)C4=CC(=O)CC[C@]4(C)[C@H]3[C@@H](O)C[C@]12C` [Medrysone] was tested, and the cell death was inactive: 0.0524. For `CCN[C@H]1CN(CCCOC)S(=O)(=O)c2sc(S(N)(=O)=O)cc21` [Brinzolamide], the cell death was inactive: 0.0634. In the case of `COc1ccc(-c2coc3cc(O)cc(O)c3c2=O)cc1` [Biochanin A], the cell death is reported as inactive: 0.318.
